Paper PMC10313662, “Structural insights into neurokinin 3 receptor activation by endogenous and analogue peptide agonists” (Cell Discovery, 2023)
Numbering of substitutions follows the chain as printed. Results are given in words; binding and its absence hold for the method and conditions named. Some results given as binding are weak or reduced against the parent protein; the word gives no strength. One block for each binder: values may come before it.

Sequences of proteins named here, by UniProt entry; tags and fusion partners are left off. A change or cut given only in a name is not applied to a line headed by its entry.
UniProt P20366: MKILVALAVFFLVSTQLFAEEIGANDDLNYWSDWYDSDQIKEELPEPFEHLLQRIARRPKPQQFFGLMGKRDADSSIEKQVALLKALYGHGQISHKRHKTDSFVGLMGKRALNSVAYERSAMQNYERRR
UniProt Q9UHF0: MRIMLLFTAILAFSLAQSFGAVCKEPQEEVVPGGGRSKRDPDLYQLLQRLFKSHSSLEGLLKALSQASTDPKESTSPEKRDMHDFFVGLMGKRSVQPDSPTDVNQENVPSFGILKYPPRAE

How the values were obtained:
[1] = target: T1, Neurokinin 3 receptor, cryo-EM construct: BRIL-NK3R(1-394)-LgBiT (human) (UniProt P29371); assay: cryo-EM structure; NK3R–Gq/SP complex, 2.9 Å; 10 μM peptide present from cell lysis on, 20 μg/mL purified Nb35 added to the membranes; complex purified on dextrin resin, TEV, Superdex 200 with 20 μM peptide in LMNG/GDN/CHS, HEPES pH 7.4, 100 mM NaCl; only the binder purified
T1 sequence: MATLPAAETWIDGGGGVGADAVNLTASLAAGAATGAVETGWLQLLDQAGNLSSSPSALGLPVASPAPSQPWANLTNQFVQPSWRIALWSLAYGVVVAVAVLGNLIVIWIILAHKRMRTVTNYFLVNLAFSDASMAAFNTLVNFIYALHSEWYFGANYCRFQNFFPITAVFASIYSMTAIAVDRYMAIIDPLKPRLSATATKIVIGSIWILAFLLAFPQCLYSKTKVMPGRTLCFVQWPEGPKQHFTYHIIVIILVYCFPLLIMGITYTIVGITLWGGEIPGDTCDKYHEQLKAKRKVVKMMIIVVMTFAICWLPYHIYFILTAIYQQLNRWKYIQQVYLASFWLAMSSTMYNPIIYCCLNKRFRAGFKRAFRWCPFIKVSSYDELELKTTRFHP

NK3R-L232mtfF (human) = target: T2, NK3R-L232mtfF (human) (UniProt P29371); assay: 1D 19F NMR; NK3R-L232mtfF purified in LMNG/GDN/CHS with 10 μM peptide (SP/NKB/senktide) present from cell lysis on; spectra at 298 K compared with the apo state; only the binder purified
T2 sequence (chain, 3'-trifluoromethyl-phenylalanine (mtfF) at 232): T1 sequence with L232F

[2] = target: T1, Neurokinin 3 receptor, cryo-EM construct: BRIL-NK3R(1-394)-LgBiT (human); assay: cryo-EM structure; NK3R–Gq/NKB complex, 2.8 Å; 10 μM peptide present from cell lysis on, 20 μg/mL purified Nb35 added to the membranes; complex purified on dextrin resin, TEV, Superdex 200 with 20 μM peptide in LMNG/GDN/CHS, HEPES pH 7.4, 100 mM NaCl; only the binder purified

binding [1]: binds
binding (NK3R-L232mtfF (human)): binds
B1: substance P (peptide, UniProt P20366 58-68)
peptide: RPKPQQFFGLM
modifications: C-terminal amide

binding [2]: binds
binding (NK3R-L232mtfF (human)): binds
B2: neurokinin B (peptide, UniProt Q9UHF0 81-90)
peptide: DMHDFFVGLM
modifications: C-terminal amide
